Measurements from PMC5687603.
No constants are given. Whether binding was seen depends on the method and setting. In cells and extracts the contact can be indirect. Here binding means that the protein was enriched with, or labelled near, the bait; the list need not be complete. Where a sequence is shown, tags or fusion partners need not be part of it.

By UniProt entry, the sequences of proteins in these tests, tags left out. Residues count along the entry.
UniProt P56480, residues 47-529: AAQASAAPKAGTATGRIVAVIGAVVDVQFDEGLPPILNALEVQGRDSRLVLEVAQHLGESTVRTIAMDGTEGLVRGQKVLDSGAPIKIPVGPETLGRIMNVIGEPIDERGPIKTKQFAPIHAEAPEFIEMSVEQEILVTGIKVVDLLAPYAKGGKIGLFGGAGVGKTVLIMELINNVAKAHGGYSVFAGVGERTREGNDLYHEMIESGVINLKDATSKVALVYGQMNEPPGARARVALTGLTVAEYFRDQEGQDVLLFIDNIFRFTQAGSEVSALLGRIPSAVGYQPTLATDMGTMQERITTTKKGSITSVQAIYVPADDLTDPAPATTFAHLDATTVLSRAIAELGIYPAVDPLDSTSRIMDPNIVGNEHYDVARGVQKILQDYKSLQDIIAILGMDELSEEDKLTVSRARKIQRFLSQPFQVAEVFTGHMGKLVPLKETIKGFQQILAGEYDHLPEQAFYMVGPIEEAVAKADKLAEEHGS
UniProt P99024: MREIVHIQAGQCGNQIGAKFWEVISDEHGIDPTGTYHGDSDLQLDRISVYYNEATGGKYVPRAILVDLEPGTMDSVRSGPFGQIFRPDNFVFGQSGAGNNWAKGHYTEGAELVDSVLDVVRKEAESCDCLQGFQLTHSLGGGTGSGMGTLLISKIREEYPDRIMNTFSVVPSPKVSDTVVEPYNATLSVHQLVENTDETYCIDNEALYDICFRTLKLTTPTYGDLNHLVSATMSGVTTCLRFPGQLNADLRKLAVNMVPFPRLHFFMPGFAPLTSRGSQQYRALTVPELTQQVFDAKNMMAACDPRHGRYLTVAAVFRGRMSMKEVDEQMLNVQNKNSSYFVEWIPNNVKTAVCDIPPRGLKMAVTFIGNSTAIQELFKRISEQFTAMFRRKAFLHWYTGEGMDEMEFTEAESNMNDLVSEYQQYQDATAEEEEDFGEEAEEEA
UniProt P05213: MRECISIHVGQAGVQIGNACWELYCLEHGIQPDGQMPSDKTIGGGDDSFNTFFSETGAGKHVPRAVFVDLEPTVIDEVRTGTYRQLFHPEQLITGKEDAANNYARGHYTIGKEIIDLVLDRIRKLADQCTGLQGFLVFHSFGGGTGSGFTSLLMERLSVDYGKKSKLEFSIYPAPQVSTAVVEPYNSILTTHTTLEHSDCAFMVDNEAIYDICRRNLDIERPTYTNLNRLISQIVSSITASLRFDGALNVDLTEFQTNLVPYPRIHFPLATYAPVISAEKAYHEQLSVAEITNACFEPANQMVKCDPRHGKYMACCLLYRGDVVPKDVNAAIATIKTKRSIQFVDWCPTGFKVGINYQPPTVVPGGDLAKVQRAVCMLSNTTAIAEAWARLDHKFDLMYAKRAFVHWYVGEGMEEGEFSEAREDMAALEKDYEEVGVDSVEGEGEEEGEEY
UniProt Q03265, residues 44-553: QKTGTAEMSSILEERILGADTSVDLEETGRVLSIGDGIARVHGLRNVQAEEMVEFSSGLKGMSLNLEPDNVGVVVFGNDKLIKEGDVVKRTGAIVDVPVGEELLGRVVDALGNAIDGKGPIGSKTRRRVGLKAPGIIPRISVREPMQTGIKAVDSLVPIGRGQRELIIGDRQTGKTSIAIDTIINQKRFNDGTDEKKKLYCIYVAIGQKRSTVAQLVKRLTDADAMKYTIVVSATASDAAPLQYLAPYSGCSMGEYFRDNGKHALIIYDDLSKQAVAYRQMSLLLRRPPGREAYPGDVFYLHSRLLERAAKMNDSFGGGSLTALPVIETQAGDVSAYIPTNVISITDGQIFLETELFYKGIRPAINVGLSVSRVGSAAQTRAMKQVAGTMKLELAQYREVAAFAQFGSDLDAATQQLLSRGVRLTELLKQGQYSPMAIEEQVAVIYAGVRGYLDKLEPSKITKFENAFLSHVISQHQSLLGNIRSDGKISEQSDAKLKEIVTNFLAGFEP

Experiments:
[1] = target: T1, recombinant mouse short-form Klotho with C-terminal Flag and 6xHis (mIMCD) (mouse) (UniProt O35082); experiment: affinity purification with mass spectrometry; lysates of mIMCD cells expressing Skl-Flag-6xHis, Klotho or Flag antibody on IP-Direct beads, low-pH elution, SDS-PAGE, in-gel trypsin digest, nano-LC-nano-ESI MS/MS, Mascot search of Swiss-Prot; compared with control cells
T1 sequence: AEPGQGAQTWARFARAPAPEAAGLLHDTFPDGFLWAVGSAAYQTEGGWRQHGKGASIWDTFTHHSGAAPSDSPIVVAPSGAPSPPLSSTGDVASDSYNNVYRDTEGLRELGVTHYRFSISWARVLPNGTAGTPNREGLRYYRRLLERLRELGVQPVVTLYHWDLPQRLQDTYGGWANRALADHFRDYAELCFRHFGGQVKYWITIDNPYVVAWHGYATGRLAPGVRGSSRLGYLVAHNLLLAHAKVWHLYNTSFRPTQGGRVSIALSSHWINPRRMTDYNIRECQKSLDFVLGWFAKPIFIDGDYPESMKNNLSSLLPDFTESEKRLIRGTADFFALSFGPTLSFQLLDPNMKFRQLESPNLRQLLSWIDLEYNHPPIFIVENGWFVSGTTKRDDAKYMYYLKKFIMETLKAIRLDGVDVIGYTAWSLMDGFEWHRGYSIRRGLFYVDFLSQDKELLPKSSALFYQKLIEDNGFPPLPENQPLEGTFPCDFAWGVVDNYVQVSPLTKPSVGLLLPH

[2] = target: T2, recombinant mouse short-form Klotho with C-terminal Flag and 6xHis (HEK293) (mouse) (UniProt O35082); experiment: affinity purification with mass spectrometry; lysates of HEK293 cells expressing Skl-Flag-6xHis, Klotho or Flag antibody on IP-Direct beads, low-pH elution, SDS-PAGE, in-gel trypsin digest, nano-LC-nano-ESI MS/MS, Mascot search of Swiss-Prot; compared with control cells
T2 sequence (chain, N-glycosylated at N161, N285 and N346): T1 sequence

Molecule: ATP synthase subunit beta, mitochondrial (from UniProt P56480 47-529)
- binding [1]: binds

Molecule: Tubulin beta-5 chain (from UniProt P99024 1-444)
- binding [1]: binds

Molecule: Tubulin alpha-1B chain (from UniProt P05213 1-451)
- binding [1]: binds

Molecule: ATP synthase subunit alpha, mitochondrial (from UniProt Q03265 44-553)
- binding [1]: binds

B1: Serpin H1 (protein, UniProt P50454 19-418)
chain: AEVKKPAAAAAPGTAEKLSPKAATLAERSAGLAFSLYQAMAKDQAVENILVSPVVVASSLGLVSLGGKATTASQAKAVLSAEQLRDEEVHAGLGELLRSLSNSTARNVTWKLGSRLYGPSSVSFADDFVRSSKQHYNCEHSKINFRDKRSALQSINEWAAQTTDGKLPEVTKDVERTDGALLVNAMFFKPHWDEKFHHKMVDNRGFMVTRSYTVGVMMMHRTGLYNYYDDEKEKLQIVEMPLAHKLSSLIILMPHHVEPLERLEKLLTKEQLKIWMGKMQKKAVAISLPKGVVEVTHDLQKHLAGLGLTEAIDKNKADLSRMSGKKDLYLASVFHATAFELDTDGNPFDQDIYGREELRSPKLFYADHPFIFLVRDTQSGSLLFIGRLVRPKGDKMRDEL
- binding [2]: binds

B2: Retrotransposon-like protein 1 (protein, UniProt A6NKG5 1-1358)
chain: MIEPSEDSFETMMEHKNPSSKQMESSEGSSNTTEATSGSGVRGEAGPASGPAQEKKEPPSGPLQEMEELPTDLLQDMEEPSSGPRKEIEDPPNDLLQDLEESCNGSHQARGDPLSGASDRMKEASVNPSGAREEQEAHTDLKESGREETPQEQNQTEHSTAELMAMVRSIISLYFRMQDLKEQQRVAEEILIKGINAGQLPAPKHFSGDRREFHEFIVLCQLTLQSYPRMFYNDRLRVGYVINHLSGLALEWAKALLQENSPLIGDFPAFLEAMSEVFEYRQALRVAEEAMFTIRQGGRSATEYIDEFQSLVPILGWPDEVLQAHLCQGLNEEIRHYLFRVPQPDSLDSLIVLILQIEEKLAERRAMLRLPPEARPRNLTWIDSPAPERWMVSSWLPSEVHPDINRAHLFLLLMVRVNPYHSVAVQALVDSGADGNFMDEKFAQEHYVELYEKPYPQPVQSVDGSLIGNEPVWLYTEPLVCIHQNHQESIEFDIVPSPNFSVVLGIRWLRVHAPEVDWIKGRCTFHSPYCLKNCFRPPPPCIALERHGMSLLPGLPHPYSDLADVFNPKEADDETSDQPSSDGSDDLSESEPSELQQAGDSDHSETFYECPSTAPWEPVGARMQERARLQEEYWDLQDMLTNRQDYIQMIPELFDQLHGAEWFTKLELRGTIVEESVNGHRTEDVWKAAFGLELEEMKSYQPFALSPDPIIPQNVIHFILKDMLGFFVLSYGQEVLIYSMSQEEHLHHVRQVLVRFRHHNVYCSLDKSQFHRQTVEFLGFVVTPKGVKLNKNVMTIITGYPTPGSKLSLRNFIEFVFPYRHFVERFSIIAEPLVRQLLSSYQFYWGVEEQEAFECLKRAFRKAPLLHHPKPQNPFYLETGVTGTALHASLIQIDDQTGKRACCAFYSRNISPIEVEYSQAEMKILPIRAAFMVWCRYLENTEEPIMILLNTEDLASLNNDRLTVLLPGHWVFFFSHFNFDVMELPEQDGGRALPPVRNLRWRRAFQRNTAARQTLLLASRGFPRDPSTESGEEENEEQDELNEQILRQELLAMIPIDQILNSFLAHFSMAQIRAVILHFFRGLLYWKNTLALAAILVLLRVRQCLSLRPAPAMRVARPQPQRSLRLILDSSLIAGSSITTAITQLLTQMPALVGANTIPAQELAELFLGPGRWQRNALHSQAHRGLQFTPGFWLTLCEFFGVRVTPQEGHLPALRQNRYLELHVVGDEDVVLREALQDDLQRYRQCGLHDGLQDTSQDKQDNDVQEAPPSHTAATHPPRPRHLMDPQVLEFLGSRLLHIHSADGQLHLLSREQAARALSQFLTLIYRRALPIPAWESQPREQARLEELPDEDEDANLD
- binding [2]: binds

B3: Alpha-crystallin B chain (protein, UniProt P23927 1-175)
chain: MDIAIHHPWIRRPFFPFHSPSRLFDQFFGEHLLESDLFSTATSLSPFYLRPPSFLRAPSWIDTGLSEMRLEKDRFSVNLDVKHFSPEELKVKVLGDVIEVHGKHEERQDEHGFISREFHRKYRIPADVDPLTITSSLSSDGVLTVNGPRKQVSGPERTIPITREEKPAVAAAPKK
- binding [1]: binds

B4: S-formylglutathione hydrolase (mouse, mIMCD) (enzyme, UniProt Q9R0P3 1-282)
chain: MALKQISSNRCFGGLQKVFEHSSVELKCKMRFAVYLPPQAESGKCPALYWLSGLTCTEQNFISKSGYQQAASEHGLVVIAPDTSPRGCNIKGEDDSWDFGTGAGFYVNATEDPWKANYRMYSYVTEELPQLINANFPVDPQRMSIFGHSMGGHGALICALKNPGKYRSVSAFAPICNPVLCSWGKKAFSGYLGPDESKWKAYDATCLVKAYSGSQIDILIDQGKDDEFLSNGQLLPDNFIAACTEKKIPVVFRLQEGYDHSYYFIATFIADHIRHHAKYLNA
- binding [1]: binds

B5: S-formylglutathione hydrolase (human, HEK293) (enzyme, UniProt P10768 1-282)
chain: MALKQISSNKCFGGLQKVFEHDSVELNCKMKFAVYLPPKAETGKCPALYWLSGLTCTEQNFISKSGYHQSASEHGLVVIAPDTSPRGCNIKGEDESWDFGTGAGFYVDATEDPWKTNYRMYSYVTEELPQLINANFPVDPQRMSIFGHSMGGHGALICALKNPGKYKSVSAFAPICNPVLCPWGKKAFSGYLGTDQSKWKAYDATHLVKSYPGSQLDILIDQGKDDQFLLDGQLLPDNFIAACTEKKIPVVFRLQEGYDHSYYFIATFITDHIRHHAKYLNA
- binding [2]: binds
